{
  "sequences": {"note": "The chains behind the UniProt entries cited, without tags or fusion partners.", "UniProt Q05397, whole entry, looked up": "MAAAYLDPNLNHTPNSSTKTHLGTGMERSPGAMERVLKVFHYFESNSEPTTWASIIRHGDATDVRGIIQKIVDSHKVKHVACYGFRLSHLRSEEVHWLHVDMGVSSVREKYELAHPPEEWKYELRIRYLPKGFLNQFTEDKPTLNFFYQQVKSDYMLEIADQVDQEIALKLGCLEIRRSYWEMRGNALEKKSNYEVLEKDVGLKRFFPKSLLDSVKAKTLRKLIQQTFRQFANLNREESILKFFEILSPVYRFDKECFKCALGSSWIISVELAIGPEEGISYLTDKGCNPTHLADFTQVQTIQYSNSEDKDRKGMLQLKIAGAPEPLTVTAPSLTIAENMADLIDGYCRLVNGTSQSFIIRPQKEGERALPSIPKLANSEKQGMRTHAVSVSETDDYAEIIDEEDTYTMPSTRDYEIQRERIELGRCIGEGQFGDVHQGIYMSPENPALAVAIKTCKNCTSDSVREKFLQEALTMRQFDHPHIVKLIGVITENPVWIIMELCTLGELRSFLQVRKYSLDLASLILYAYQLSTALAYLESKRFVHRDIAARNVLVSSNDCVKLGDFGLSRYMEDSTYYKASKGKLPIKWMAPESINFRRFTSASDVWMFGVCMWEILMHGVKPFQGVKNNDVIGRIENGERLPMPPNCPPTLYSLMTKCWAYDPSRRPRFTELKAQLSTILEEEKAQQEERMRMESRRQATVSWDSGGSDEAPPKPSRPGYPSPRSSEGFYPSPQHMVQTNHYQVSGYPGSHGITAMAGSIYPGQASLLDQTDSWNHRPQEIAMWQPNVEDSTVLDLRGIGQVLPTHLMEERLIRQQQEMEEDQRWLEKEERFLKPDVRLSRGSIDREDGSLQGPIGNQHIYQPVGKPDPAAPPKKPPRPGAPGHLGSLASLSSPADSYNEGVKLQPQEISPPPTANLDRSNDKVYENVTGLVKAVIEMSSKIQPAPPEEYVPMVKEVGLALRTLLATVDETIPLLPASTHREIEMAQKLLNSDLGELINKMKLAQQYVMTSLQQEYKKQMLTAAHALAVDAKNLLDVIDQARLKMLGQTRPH"},
  "source": "the supplement of paper PMC12823440",
  "about": "“Inhibitors supercharge kinase turnover through native proteolytic circuits” (Nature, 2025)",
  "note": "Counter-ions that a name gives are not always drawn. Some of the results follow. The calls rarely recur for the same compound in another form.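 Kinases, fused to nanoluciferase, were expressed in K562 cells; luminescence was measured every 4 h from 2 to 18 h as percent of control (DMSO = 100%, positive control = 0%). A time point is decreased if signal falls significantly (2 sigma). Hits were called by the authors by a rule that is not shown; the count of time points alone does not decide it.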",
  "data": [
    {"biological_target": "PTK2 (UniProt Q05397)", "assay": "kinase-Nluc reporter destabilization hit call (1 = scored as downregulated) (binary); higher = compound decreases kinase abundance", "conditions": "K562; 2-18 h", "values": [
      {"smiles": "CCS(=O)(=O)c1ncc(Cl)c(C(=O)N(Cc2ccc(Cl)cc2)Cc2ccco2)n1", "note": "(2.5 µM)", "kinase-Nluc reporter destabilization hit call": "inactive: 0"},
      {"smiles": "Nc1cc(C(F)(F)F)c(-c2cc(N3CCOCC3)nc(N3CCOCC3)n2)cn1", "note": "[Buparlisib (Hydrochloride)] (2.5 µM)", "kinase-Nluc reporter destabilization hit call": "inactive: 0"},
      {"smiles": "COc1cc(Nc2ncc(F)c(Nc3ccc4c(n3)N(COP(=O)(O)O)C(=O)C(C)(C)O4)n2)cc(OC)c1OC", "note": "[Fostamatinib Disodium] (10 µM)", "kinase-Nluc reporter destabilization hit call": "inactive: 0"},
      {"smiles": "CC(C)(O)CNc1ncc(-c2ccnc(Nc3ccnc(Cl)c3)n2)c(CC2CC2)n1", "note": "(2.5 µM)", "kinase-Nluc reporter destabilization hit call": "inactive: 0"},
      {"smiles": "O=Nc1c(-c2c(O)[nH]c3ccc(I)cc23)[nH]c2ccccc12", "note": "[5-Iodo-indirubin-3'-monoxime] (10 µM)", "kinase-Nluc reporter destabilization hit call": "inactive: 0"},
      {"smiles": "Cc1cc(Nc2ncnc3ccc(NC4=NC(C)(C)CO4)cc23)ccc1Oc1ccn2ncnc2c1", "note": "[Tucatinib] (2.5 µM)", "kinase-Nluc reporter destabilization hit call": "inactive: 0"},
      {"smiles": "CCS(=O)(=O)Nc1ccc2[nH]c(O)c(C(=Nc3ccc(CN4CCCCC4)cc3)c3ccccc3)c2c1", "note": "[Hesperadin] (2.5 µM)", "kinase-Nluc reporter destabilization hit call": "inactive: 0"},
      {"smiles": "COc1cc2c(cc1OC)CN(S(=O)(=O)c1ccc(OC)c(N3CCN(C(=O)c4ccc(F)cc4C(F)(F)F)CC3)c1)CC2", "note": "(10 µM)", "kinase-Nluc reporter destabilization hit call": "inactive: 0"},
      {"smiles": "O=C([O-])c1cc2ccccc2c(Cc2c(O)c(C(=O)[O-])cc3ccccc23)c1O.[Na+].[Na+]", "note": "[Pamoic acid (disodium)] (10 µM)", "kinase-Nluc reporter destabilization hit call": "inactive: 0"},
      {"smiles": "Cn1cc(-c2ccc3nnc(Sc4ccc5ncccc5c4)n3n2)cn1", "note": "(10 µM)", "kinase-Nluc reporter destabilization hit call": "inactive: 0"},
      {"smiles": "Cc1cc(O)c2c(c1)C(=O)c1cc(O)cc(O)c1C2=O", "note": "[Emodin] (10 µM)", "kinase-Nluc reporter destabilization hit call": "inactive: 0"},
      {"smiles": "COc1cc2c(N3CCN(C(=O)Nc4ccc(OC(C)C)cc4)CC3)ncnc2cc1OCCCN1CCCCC1", "note": "[Tandutinib (hydrochloride)] (10 µM)", "kinase-Nluc reporter destabilization hit call": "inactive: 0"},
      {"smiles": "CCC(C)N1c2ccccc2C(=O)N(C)c2cnc(Nc3ccc(C(=O)N4CCC(N5CCN(C)CC5)CC4)cc3OC)nc21", "note": "(centres undefined) (2.5 µM)", "kinase-Nluc reporter destabilization hit call": "inactive: 0"},
      {"smiles": "COc1cc(Nc2ncc(F)c(Nc3ccc4c(n3)NC(=O)C(C)(C)O4)n2)cc(OC)c1OC", "note": "(10 µM)", "kinase-Nluc reporter destabilization hit call": "inactive: 0"},
      {"smiles": "NS(=O)(=O)c1ccc(-n2nc(C(F)(F)F)cc2-c2ccc(Cl)cc2)cc1", "note": "(10 µM)", "kinase-Nluc reporter destabilization hit call": "inactive: 0"},
      {"smiles": "Cc1c(NC(=O)c2cccn(-c3ccc(F)cc3)c2=O)ccc(Oc2ccnc(NC(=O)C3CC3)c2)c1C", "note": "(2 µM)", "kinase-Nluc reporter destabilization hit call": "inactive: 0"},
      {"smiles": "c1ccc(-c2[nH]ncc2-c2ccnc3ccccc23)nc1", "note": "(10 µM)", "kinase-Nluc reporter destabilization hit call": "inactive: 0"},
      {"smiles": "CN(C)CCCOc1ccc(-c2ccc3ncc4c(c3c2)n(C2CCOCC2)c(=O)n4C)cn1", "note": "(2 µM)", "kinase-Nluc reporter destabilization hit call": "inactive: 0"},
      {"smiles": "COc1cc(Nc2ncc(F)c(Nc3ccc4c(n3)NC(=O)C(C)(C)O4)n2)cc(OC)c1OC", "note": "[R406 (free base)] (10 µM)", "kinase-Nluc reporter destabilization hit call": "inactive: 0"},
      {"smiles": "OCCn1cc(-c2ccc3c(c2)CC/C3=N\\O)c(-c2ccncc2)n1", "note": "(10 µM)", "kinase-Nluc reporter destabilization hit call": "inactive: 0"},
      {"smiles": "C[C@@H]1CCN(C(=O)CC#N)C[C@@H]1N(C)c1ncnc2[nH]ccc12", "note": "[Tofacitinib] (10 µM)", "kinase-Nluc reporter destabilization hit call": "inactive: 0"},
      {"smiles": "C[C@@H]1CCN(C(=O)CC#N)C[C@@H]1N(C)c1ncnc2[nH]ccc12", "note": "[Tofacitinib (citrate)] (10 µM)", "kinase-Nluc reporter destabilization hit call": "inactive: 0"},
      {"smiles": "FC(F)(c1ccc2ncccc2c1)c1nnc2ccc(-c3ccncc3)nn12", "note": "(10 µM)", "kinase-Nluc reporter destabilization hit call": "inactive: 0"},
      {"smiles": "O=C1NC(=O)/C(=C\\c2cccc(C(F)(F)F)c2)S1", "note": "(2.5 µM)", "kinase-Nluc reporter destabilization hit call": "inactive: 0"},
      {"smiles": "N#CCC1CCN(c2nc(Nc3ccc(N4CCC(O)CC4)cc3)c3c(=O)[nH]ncc3n2)CC1", "note": "[Gusacitinib] (10 µM)", "kinase-Nluc reporter destabilization hit call": "inactive: 0"},
      {"smiles": "Nc1ncnc2c1c(-c1cccc(OCc3ccccc3)c1)cn2C1CC(CN2CCC2)C1", "note": "(centres undefined) (2.5 µM)", "kinase-Nluc reporter destabilization hit call": "inactive: 0"},
      {"smiles": "CCNc1nc(Nc2cc(F)c(C(=O)N3CCOCC3)cc2OC)ncc1C(F)(F)F", "note": "[GNE-7915 (tosylate)] (10 µM)", "kinase-Nluc reporter destabilization hit call": "inactive: 0"},
      {"smiles": "Cn1cnc2c(F)c(Nc3ccc(Br)cc3Cl)c(C(=O)NOCCO)cc21", "note": "[Selumetinib] (10 µM)", "kinase-Nluc reporter destabilization hit call": "inactive: 0"},
      {"smiles": "CCN1CCN(Cc2ccc(-c3cc4c(N[C@H](C)c5ccccc5)ncnc4[nH]3)cc2)CC1", "note": "(2.5 µM)", "kinase-Nluc reporter destabilization hit call": "inactive: 0"},
      {"smiles": "O=C(N/N=C/c1coc2ccccc2c1=O)c1cccnc1", "note": "(10 µM)", "kinase-Nluc reporter destabilization hit call": "inactive: 0"},
      {"smiles": "O=Nc1c(-c2c(O)[nH]c3ccc(F)cc23)[nH]c2ccccc12", "note": "[5'-Fluoroindirubinoxime] (10 µM)", "kinase-Nluc reporter destabilization hit call": "inactive: 0"},
      {"smiles": "CC(=O)NC1CC(n2cnc(NC(=O)Cc3ccc4ccccc4c3)c2)C1", "note": "(centres undefined) (10 µM)", "kinase-Nluc reporter destabilization hit call": "inactive: 0"},
      {"smiles": "O=C(CSC1=NCCN1)NC1CCCCCC1", "note": "[ICCB-19 (hydrochloride)] (2.5 µM)", "kinase-Nluc reporter destabilization hit call": "inactive: 0"},
      {"smiles": "N#Cc1c(C2CCNCC2)cc(-c2c(O)cccc2OCC2CC2)nc1N", "note": "[ACHP (Hydrochloride)] (10 µM)", "kinase-Nluc reporter destabilization hit call": "inactive: 0"},
      {"smiles": "CCOC(=O)N1CCN(C(=O)[C@H](Cc2cccc(C(=N)N)c2)NS(=O)(=O)c2c(C(C)C)cc(C(C)C)cc2C(C)C)CC1", "note": "(10 µM)", "kinase-Nluc reporter destabilization hit call": "inactive: 0"},
      {"smiles": "CN1CCN(c2cnc3c(C4CCN(C(=O)c5ccc(OC(F)(F)F)cc5N)CC4)ncnc3c2)CC1", "note": "(10 µM)", "kinase-Nluc reporter destabilization hit call": "inactive: 0"},
      {"smiles": "Cc1[nH]c(/C=C2\\C(=O)Nc3ccccc32)c(C)c1CCC(=O)O", "note": "[Orantinib] (10 µM)", "kinase-Nluc reporter destabilization hit call": "inactive: 0"},
      {"smiles": "Cn1nccc1Nc1nccc(-c2ccn([C@H](CO)c3ccc(Cl)c(F)c3)c(=O)c2)n1", "note": "[Ravoxertinib hydrochloride] (10 µM)", "kinase-Nluc reporter destabilization hit call": "inactive: 0"},
      {"smiles": "CCCCCCCCCCCCC/C=C/[C@@H](O)[C@@H](N)CO", "note": "[D-erythro-Sphingosine] (2.5 µM)", "kinase-Nluc reporter destabilization hit call": "inactive: 0"}
    ]}
  ]
}
